Data source: PubChem BioAssay AID1259276 (Sanger Institute, 2017)
The deposit covers 794 reagents; below is a part drawn at random. 24 of them (3%) count as active. 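Calls come only from the siRNA-alone arm; drug synergy scores do not affect them.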 No viability above 1 is reported: the scale is capped. The record does not give: the amount of reagent, the time to read-out.

- Test: 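Kinome-wide search for kinases colon cancer cells need, and for drug partners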 (primary screen)
- Cell system: human C2BBe1 colorectal cancer cells
- Reagents: siRNA pool against human genes
- Conditions: DMSO vehicle, or one anchor drug: BYL719 at 1 µM, cetuximab at 5 µg/ml, or trametinib at 10 nM; exposure length not stated
- Measured: 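Cell viability as a fraction of non-targeting control wells, mean of replicates, also as a control-based robust z-score, plus a synergy score for each anchor drug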
- Scale: viability robust z-score, siRNA alone and viability vs control, siRNA alone: higher = more viable cells after knock-down; synergy score with BYL719: higher = stronger combined killing with BYL719; synergy score with cetuximab: higher = stronger combined killing with cetuximab; synergy score with trametinib: higher = stronger combined killing with trametinib
- Hit rule: 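Called essential when knock-down alone gives a viability robust z-score below -3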
- Calls: active = essential (siRNA alone); inactive = no change (siRNA alone)

Target gene	viability robust z-score, siRNA alone	viability vs control, siRNA alone	synergy score with BYL719	synergy score with cetuximab	synergy score with trametinib	Outcome
APC	-0.499	0.939	-0.156	0.224	0.199	inactive
AKT1	-1.89	0.851	0.0625	-0.159	-0.15	inactive
DLG3	0.472	1	0.0516	-0.0115	-0.0667	inactive
NUP62	0.472	1	-0.142	0.181	-0.0667	inactive
NTRK1	0.472	1	0.269	0.23	0.12	inactive
CDK19	0.3	0.989	-0.0275	0.0813	0.249	inactive
CDK16	-0.946	0.911	-0.0529	0.0071	-0.15	inactive
BRD3	0.472	1	0.0218	-0.0115	-0.0667	inactive
CUL1	0.472	1	-0.142	0.336	-0.0667	inactive
MAP3K9	0.472	1	0.182	-0.0115	-0.0667	inactive
ULK3	0.472	1	-0.142	-0.0115	0.00557	inactive
NME4	0.472	1	0.05	-0.0115	-0.036	inactive
TSSK4	0.472	1	-0.0622	0.0595	-0.0474	inactive
RIOK2	0.472	1	-0.0428	-0.0115	-0.0667	inactive
PRKCB	0.472	1	0.0693	-0.0115	-0.0388	inactive

6 consecutive records already listed, quoted:
Target gene	viability robust z-score, siRNA alone	viability vs control, siRNA alone	synergy score with BYL719	synergy score with cetuximab	synergy score with trametinib	Outcome
DLG3	0.472	1	0.0516	-0.0115	-0.0667	inactive
NUP62	0.472	1	-0.142	0.181	-0.0667	inactive
NTRK1	0.472	1	0.269	0.23	0.12	inactive
CDK19	0.3	0.989	-0.0275	0.0813	0.249	inactive
CDK16	-0.946	0.911	-0.0529	0.0071	-0.15	inactive
BRD3	0.472	1	0.0218	-0.0115	-0.0667	inactive

More records:
Target gene	viability robust z-score, siRNA alone	viability vs control, siRNA alone	synergy score with BYL719	synergy score with cetuximab	synergy score with trametinib	Outcome
MTOR	0.472	1	-0.056	-0.0115	-0.0667	inactive
NAGK	0.144	0.979	-0.115	-0.0319	0.0648	inactive
PASK	0.472	1	-0.142	-0.0115	-0.0667	inactive
AK5	0.472	1	0.182	-0.00622	-0.0667	inactive
NUP107	0.472	1	-0.142	-0.0115	-0.0667	inactive
EPHA10	-0.813	0.919	0.0418	0.226	-0.0205	inactive
ASPM	0.472	1	0.193	0.196	0.0262	inactive
ACVR2B	0.472	1	0.0242	-0.00338	0.0183	inactive
TAOK1	-0.14	0.961	0.0738	0.128	0.0541	inactive
MAGI3	0.472	1	-0.000531	0.12	-0.00924	inactive
PIP5K1B	-1.83	0.855	0.0286	0.00191	-0.0633	inactive
HK2	-1.05	0.904	-0.0405	0.0376	-0.156	inactive
SRPK3	0.472	1	0.0162	-0.0115	-0.0286	inactive
PRKD2	0.371	0.994	-0.147	0.0949	0.122	inactive
CDK5R1	-1.38	0.883	0.0475	-0.101	-0.126	inactive
RPS6KA3	0.472	1	-0.142	-0.0115	-0.0667	inactive
SMG1	0.472	1	-0.142	-0.0115	-0.0299	inactive
CPNE3	0.472	1	0.165	-0.0115	-0.061	inactive
PDK1	0.472	1	-0.142	-0.0115	-0.0667	inactive
BRD4	0.472	1	-0.142	0.2	0.00294	inactive
